The list shows a part of the results. The calls rarely recur for the same compound in another form.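 In K562 cells expressing nanoluciferase-fused kinases, luminescence was recorded at 4 h intervals between 2 and 18 h, normalized as percent of control with DMSO at 100% and a positive control at 0%. A significant (2 sigma) signal drop marks a time point as decreased. The authors' rule for a hit is not shown and takes in more than the number of time points.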
Legend:
Assay in all cases: kinase-Nluc reporter destabilization hit call (1 = scored as downregulated) (binary); higher = compound decreases kinase abundance
Conditions in all cases: K562; 2-18 h
PDPK1 = PDPK1 (UniProt O15530)
PIK4CA = PIK4CA (UniProt P42356)
PIK4CB = PIK4CB (UniProt Q9UBF8)
PLK1 = PLK1 (UniProt P53350)
PRKAA1 = PRKAA1 (UniProt Q13131)
PRKCA = PRKCA (UniProt P17252)
PTK2 = PTK2 (UniProt Q05397)
PTK2B = PTK2B (UniProt Q14289)
RAF1 = RAF1 (UniProt P04049)
[1] = target: RAF1_S257L (clone: RAF1_mut) (UniProt P04049)
RET = RET (UniProt P07949)
[2] = target: RET_M918T (clone: RET_mut) (UniProt P07949)
RIOK1 = RIOK1 (UniProt Q9BRS2)
RIPK1 = RIPK1 (UniProt Q13546)
RIPK2 = RIPK2 (UniProt O43353)
ROR2 = ROR2 (UniProt Q01974)
RPS6KA1 = RPS6KA1 (UniProt Q15418)
SPHK1 = SPHK1 (UniProt Q9NYA1)
SRC = SRC (UniProt P12931)
STK24 = STK24 (UniProt Q9Y6E0)

The chains behind the UniProt entries cited, without tags or fusion partners. Where a name states a change or a piece, a line headed by the entry shows the natural chain unless it says otherwise.
UniProt O15530: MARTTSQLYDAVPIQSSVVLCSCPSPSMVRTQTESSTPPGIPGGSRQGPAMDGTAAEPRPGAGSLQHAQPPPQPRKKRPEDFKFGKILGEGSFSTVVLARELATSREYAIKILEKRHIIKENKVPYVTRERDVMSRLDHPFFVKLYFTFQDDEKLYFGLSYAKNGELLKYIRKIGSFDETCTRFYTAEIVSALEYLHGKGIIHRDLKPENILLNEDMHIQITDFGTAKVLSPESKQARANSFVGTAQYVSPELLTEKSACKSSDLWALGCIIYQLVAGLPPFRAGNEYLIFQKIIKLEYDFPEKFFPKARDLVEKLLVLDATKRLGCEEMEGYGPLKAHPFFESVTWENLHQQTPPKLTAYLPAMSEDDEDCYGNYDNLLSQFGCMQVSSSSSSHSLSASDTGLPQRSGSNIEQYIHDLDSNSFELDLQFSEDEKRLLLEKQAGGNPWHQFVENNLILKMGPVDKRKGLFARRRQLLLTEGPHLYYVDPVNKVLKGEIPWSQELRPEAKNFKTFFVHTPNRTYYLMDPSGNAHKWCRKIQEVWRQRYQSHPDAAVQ
UniProt P53350, whole entry: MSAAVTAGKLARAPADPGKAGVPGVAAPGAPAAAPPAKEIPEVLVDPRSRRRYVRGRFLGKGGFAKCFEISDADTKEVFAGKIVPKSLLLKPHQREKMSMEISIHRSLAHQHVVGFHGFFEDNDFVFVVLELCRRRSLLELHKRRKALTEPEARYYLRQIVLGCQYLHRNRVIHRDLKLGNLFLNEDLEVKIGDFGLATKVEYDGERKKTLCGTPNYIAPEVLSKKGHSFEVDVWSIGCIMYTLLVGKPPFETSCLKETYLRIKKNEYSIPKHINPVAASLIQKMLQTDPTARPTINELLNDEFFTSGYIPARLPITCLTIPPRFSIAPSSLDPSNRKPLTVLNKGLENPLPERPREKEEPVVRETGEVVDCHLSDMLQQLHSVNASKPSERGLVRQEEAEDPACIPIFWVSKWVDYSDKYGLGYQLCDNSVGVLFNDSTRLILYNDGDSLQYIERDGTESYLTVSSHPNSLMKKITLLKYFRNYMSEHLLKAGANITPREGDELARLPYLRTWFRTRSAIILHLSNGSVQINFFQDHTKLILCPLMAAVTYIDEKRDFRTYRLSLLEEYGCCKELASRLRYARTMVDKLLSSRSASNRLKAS
UniProt Q14289, whole entry, looked up: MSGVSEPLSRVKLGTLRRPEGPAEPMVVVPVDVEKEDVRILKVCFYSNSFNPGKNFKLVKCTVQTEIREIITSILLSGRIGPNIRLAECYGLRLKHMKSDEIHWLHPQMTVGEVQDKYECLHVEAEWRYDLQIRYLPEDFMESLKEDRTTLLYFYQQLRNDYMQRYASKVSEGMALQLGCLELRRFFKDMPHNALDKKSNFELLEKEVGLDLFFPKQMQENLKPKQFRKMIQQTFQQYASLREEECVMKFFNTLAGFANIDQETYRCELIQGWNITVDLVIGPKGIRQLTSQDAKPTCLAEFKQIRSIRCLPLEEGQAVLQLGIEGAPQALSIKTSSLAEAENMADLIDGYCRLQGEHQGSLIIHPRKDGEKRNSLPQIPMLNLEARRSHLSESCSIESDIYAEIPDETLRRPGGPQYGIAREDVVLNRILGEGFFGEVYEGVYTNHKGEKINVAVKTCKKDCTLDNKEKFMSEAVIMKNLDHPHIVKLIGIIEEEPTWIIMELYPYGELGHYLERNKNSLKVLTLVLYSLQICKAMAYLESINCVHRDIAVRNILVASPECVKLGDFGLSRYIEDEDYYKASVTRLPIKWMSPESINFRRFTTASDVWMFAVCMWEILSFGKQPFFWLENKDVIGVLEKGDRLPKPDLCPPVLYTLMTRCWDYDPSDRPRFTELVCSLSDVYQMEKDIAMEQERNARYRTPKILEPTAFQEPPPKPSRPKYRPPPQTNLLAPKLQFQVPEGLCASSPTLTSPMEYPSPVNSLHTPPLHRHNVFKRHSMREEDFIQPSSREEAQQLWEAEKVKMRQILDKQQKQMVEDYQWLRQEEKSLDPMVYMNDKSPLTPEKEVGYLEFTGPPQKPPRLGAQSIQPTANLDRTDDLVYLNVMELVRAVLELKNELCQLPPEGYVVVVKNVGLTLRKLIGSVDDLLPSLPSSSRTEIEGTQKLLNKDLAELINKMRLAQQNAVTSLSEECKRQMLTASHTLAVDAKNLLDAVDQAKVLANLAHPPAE
UniProt P07949, whole entry, looked up: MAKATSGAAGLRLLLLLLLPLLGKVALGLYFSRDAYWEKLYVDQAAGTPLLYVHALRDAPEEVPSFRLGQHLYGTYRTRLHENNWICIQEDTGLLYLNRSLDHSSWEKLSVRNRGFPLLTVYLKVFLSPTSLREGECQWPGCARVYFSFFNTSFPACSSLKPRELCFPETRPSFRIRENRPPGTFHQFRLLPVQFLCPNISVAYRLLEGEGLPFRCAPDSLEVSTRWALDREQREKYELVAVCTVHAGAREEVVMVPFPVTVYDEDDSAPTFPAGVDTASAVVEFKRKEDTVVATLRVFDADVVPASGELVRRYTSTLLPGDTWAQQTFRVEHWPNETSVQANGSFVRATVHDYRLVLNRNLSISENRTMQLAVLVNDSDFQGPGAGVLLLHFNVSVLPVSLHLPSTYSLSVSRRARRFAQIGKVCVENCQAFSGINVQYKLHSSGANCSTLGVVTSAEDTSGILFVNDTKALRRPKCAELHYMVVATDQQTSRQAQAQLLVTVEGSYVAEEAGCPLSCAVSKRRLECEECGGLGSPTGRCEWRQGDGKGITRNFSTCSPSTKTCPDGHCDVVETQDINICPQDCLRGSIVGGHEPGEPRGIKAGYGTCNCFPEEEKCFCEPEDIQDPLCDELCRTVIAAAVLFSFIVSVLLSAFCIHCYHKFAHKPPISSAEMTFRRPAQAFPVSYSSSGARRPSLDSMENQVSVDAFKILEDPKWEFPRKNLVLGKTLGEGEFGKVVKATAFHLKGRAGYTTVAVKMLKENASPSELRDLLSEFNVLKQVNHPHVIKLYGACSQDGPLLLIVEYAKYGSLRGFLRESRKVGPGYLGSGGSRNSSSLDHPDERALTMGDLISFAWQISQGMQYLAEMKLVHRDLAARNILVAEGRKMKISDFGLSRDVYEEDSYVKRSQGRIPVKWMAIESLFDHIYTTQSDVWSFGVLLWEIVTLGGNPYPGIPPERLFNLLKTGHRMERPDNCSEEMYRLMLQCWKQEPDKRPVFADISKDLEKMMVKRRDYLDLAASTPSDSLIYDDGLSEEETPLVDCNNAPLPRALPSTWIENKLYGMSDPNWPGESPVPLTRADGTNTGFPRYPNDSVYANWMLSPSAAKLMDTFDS
UniProt P07949, whole entry M918T, looked up: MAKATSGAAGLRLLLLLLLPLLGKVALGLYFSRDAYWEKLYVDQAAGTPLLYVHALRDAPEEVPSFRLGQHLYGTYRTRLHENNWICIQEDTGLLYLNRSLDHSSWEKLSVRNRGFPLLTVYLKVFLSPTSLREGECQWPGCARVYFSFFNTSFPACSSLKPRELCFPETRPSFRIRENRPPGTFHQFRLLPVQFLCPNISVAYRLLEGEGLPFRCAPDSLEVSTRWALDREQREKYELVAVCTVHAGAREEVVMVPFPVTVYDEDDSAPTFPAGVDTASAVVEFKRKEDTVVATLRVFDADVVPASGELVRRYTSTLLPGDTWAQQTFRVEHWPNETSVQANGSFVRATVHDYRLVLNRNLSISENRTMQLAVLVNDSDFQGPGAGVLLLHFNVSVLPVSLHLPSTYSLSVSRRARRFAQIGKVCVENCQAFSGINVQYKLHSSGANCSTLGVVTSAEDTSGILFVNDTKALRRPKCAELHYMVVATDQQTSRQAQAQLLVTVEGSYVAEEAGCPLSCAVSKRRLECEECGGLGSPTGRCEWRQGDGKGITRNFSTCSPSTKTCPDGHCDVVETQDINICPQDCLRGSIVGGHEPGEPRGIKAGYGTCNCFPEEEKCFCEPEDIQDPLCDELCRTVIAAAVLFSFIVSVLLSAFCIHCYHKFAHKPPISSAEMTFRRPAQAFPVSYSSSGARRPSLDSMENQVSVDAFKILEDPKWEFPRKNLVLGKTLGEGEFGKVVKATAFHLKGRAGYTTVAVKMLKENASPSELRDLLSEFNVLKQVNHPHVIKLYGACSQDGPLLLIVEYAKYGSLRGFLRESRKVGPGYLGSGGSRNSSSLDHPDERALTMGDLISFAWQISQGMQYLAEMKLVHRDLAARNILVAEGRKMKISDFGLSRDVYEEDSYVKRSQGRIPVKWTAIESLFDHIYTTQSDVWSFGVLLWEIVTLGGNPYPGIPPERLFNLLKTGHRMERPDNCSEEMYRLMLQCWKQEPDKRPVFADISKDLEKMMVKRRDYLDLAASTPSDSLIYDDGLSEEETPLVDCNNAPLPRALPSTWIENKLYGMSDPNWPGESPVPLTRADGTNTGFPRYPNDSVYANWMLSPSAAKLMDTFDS
UniProt Q9BRS2: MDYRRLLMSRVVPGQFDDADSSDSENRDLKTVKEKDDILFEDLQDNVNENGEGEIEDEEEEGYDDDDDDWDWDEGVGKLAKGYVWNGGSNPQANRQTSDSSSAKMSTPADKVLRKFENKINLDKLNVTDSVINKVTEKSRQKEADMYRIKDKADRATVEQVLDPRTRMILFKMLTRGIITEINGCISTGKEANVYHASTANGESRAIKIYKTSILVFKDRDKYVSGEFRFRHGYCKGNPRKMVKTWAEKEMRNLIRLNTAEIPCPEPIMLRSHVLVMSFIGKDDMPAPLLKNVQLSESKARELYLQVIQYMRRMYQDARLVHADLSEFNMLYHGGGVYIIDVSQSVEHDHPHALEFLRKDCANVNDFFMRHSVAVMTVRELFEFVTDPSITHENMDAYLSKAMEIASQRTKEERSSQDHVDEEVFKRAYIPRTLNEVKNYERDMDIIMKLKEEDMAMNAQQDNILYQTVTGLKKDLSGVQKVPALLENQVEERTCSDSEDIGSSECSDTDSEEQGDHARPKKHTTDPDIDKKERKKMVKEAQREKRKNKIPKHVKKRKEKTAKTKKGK
UniProt Q01974, whole entry: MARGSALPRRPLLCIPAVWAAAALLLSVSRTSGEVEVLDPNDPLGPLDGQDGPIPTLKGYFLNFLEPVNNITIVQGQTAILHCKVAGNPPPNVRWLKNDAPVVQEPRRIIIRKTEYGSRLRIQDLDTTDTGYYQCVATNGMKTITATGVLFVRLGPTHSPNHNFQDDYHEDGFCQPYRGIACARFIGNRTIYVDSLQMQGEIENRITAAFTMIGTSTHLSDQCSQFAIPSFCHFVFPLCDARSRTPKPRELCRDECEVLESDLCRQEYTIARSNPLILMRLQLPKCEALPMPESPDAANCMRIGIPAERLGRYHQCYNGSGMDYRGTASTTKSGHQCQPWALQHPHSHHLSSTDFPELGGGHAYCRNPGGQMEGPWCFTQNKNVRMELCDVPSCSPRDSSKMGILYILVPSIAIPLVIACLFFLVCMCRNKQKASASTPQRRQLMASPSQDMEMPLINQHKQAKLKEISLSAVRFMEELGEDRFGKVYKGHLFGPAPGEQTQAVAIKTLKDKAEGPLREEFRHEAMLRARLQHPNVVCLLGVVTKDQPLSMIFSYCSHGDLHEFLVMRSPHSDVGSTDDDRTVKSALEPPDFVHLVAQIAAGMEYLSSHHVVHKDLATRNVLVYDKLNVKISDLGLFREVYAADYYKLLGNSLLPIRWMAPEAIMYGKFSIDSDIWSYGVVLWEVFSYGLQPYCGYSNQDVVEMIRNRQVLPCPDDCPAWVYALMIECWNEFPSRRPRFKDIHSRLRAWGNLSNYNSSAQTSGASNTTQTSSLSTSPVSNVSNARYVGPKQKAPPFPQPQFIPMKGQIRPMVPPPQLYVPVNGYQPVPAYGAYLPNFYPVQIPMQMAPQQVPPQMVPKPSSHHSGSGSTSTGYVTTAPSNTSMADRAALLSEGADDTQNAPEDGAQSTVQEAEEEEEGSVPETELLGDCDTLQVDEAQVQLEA

Measured: kinase-Nluc reporter destabilization hit call

O=C(Nc1ncc(SCCN2CCCC2)s1)[C@]1(c2ccc(S(=O)(=O)C3CC3)cc2)C[C@H]1C1CCCCC1 [Globalagliatin] (2.5 µM)
inactive: PDPK1 = 0 | PIK4CA 0 | PIK4CB 0 | PLK1 = 0 | PRKAA1 = 0 | PRKCA 0 | PTK2 = 0 | PTK2B 0 | RAF1 = 0 | [1] 0 | RET 0 | [2] 0 | RIOK1 = 0 | RIPK1 = 0 | RIPK2 = 0 | ROR2 = 0 | RPS6KA1 = 0 | SPHK1 = 0 | SRC 0 | STK24 = 0

O=C(Nc1nccs1)C(c1cc(F)ccc1O)N1Cc2ccc(-c3ccc(N4CCNCC4)cc3)cc2C1=O (racemic) (10 µM)
inactive: PDPK1 = 0 | PIK4CA 0 | PIK4CB 0 | PLK1 = 0 | PRKAA1 = 0 | PRKCA 0 | PTK2 = 0 | PTK2B 0 | RAF1 = 0 | [1] 0 | RET 0 | [2] 0 | RIOK1 = 0 | RIPK1 = 0 | RIPK2 = 0 | ROR2 = 0 | RPS6KA1 = 0 | SPHK1 = 0 | SRC 0 | STK24 = 0

Cn1cc(-c2ccc3ncc(Cc4ccc5ncccc5c4)n3n2)cn1 (10 µM)
inactive: PDPK1 = 0 | PIK4CA 0 | PIK4CB 0 | PLK1 = 0 | PRKAA1 = 0 | PRKCA 0 | PTK2 = 0 | PTK2B 0 | RAF1 = 0 | [1] 0 | RET 0 | [2] 0 | RIOK1 = 0 | RIPK1 = 0 | RIPK2 = 0 | ROR2 = 0 | RPS6KA1 = 0 | SPHK1 = 0 | SRC 0 | STK24 = 0

Cc1cc(F)c(Nc2ncnc3cc(OCc4ccccc4)ccc23)cc1O (10 µM)
inactive: PDPK1 = 0 | PIK4CA 0 | PIK4CB 0 | PLK1 = 0 | PRKAA1 = 0 | PRKCA 0 | PTK2 = 0 | PTK2B 0 | RAF1 = 0 | [1] 0 | RET 0 | [2] 0 | RIOK1 = 0 | RIPK1 = 0 | RIPK2 = 0 | ROR2 = 0 | RPS6KA1 = 0 | SPHK1 = 0 | SRC 0 | STK24 = 0

COc1ccc(C2CC(c3ccc(Cl)cc3)=NN2c2nc(-c3ccncc3)cs2)cc1 (stereo not given) [mTOR inhibitor-8] (10 µM)
inactive: PDPK1 = 0 | PIK4CA 0 | PIK4CB 0 | PLK1 = 0 | PRKAA1 = 0 | PRKCA 0 | PTK2 = 0 | PTK2B 0 | RAF1 = 0 | [1] 0 | RET 0 | [2] 0 | RIOK1 = 0 | RIPK1 = 0 | RIPK2 = 0 | ROR2 = 0 | RPS6KA1 = 0 | SPHK1 = 0 | SRC 0 | STK24 = 0

CNC(=O)c1nnc(NC(=O)C2CC2)cc1Nc1cccc(-c2ncn(C)n2)c1OC [Deucravacitinib] (10 µM)
inactive: PDPK1 = 0 | PIK4CA 0 | PIK4CB 0 | PLK1 = 0 | PRKAA1 = 0 | PRKCA 0 | PTK2 = 0 | PTK2B 0 | RAF1 = 0 | [1] 0 | RET 0 | [2] 0 | RIOK1 = 0 | RIPK1 = 0 | RIPK2 = 0 | ROR2 = 0 | RPS6KA1 = 0 | SPHK1 = 0 | SRC 0 | STK24 = 0

CCN1C(C)(C)CC(Oc2ccc(C(=O)Nc3ccc(NC(=O)Nc4cc(C(C)(C)C)on4)cc3)nc2)CC1(C)C (10 µM)
inactive: PDPK1 = 0 | PIK4CA 0 | PIK4CB 0 | PLK1 = 0 | PRKAA1 = 0 | PRKCA 0 | PTK2 = 0 | PTK2B 0 | RAF1 = 0 | [1] 0 | RET 0 | [2] 0 | RIOK1 = 0 | RIPK1 = 0 | RIPK2 = 0 | ROR2 = 0 | RPS6KA1 = 0 | SPHK1 = 0 | SRC 0 | STK24 = 0

Cc1occ2c1C(=O)c1c(O)ccc(O)c1C2 (2.5 µM)
inactive: PDPK1 = 0 | PIK4CA 0 | PIK4CB 0 | PLK1 = 0 | PRKAA1 = 0 | PRKCA 0 | PTK2 = 0 | PTK2B 0 | RAF1 = 0 | [1] 0 | RET 0 | [2] 0 | RIOK1 = 0 | RIPK1 = 0 | RIPK2 = 0 | ROR2 = 0 | RPS6KA1 = 0 | SPHK1 = 0 | SRC 0 | STK24 = 0

O=C(CC(c1ccccc1)C(C(=O)O)C(=O)O)c1ccc(C(F)(F)F)cc1 (stereo not given) (10 µM)
inactive: PDPK1 = 0 | PIK4CA 0 | PIK4CB 0 | PLK1 = 0 | PRKAA1 = 0 | PRKCA 0 | PTK2 = 0 | PTK2B 0 | RAF1 = 0 | [1] 0 | RET 0 | [2] 0 | RIOK1 = 0 | RIPK1 = 0 | RIPK2 = 0 | ROR2 = 0 | RPS6KA1 = 0 | SPHK1 = 0 | SRC 0 | STK24 = 0

3 structures out of the list, sorted by length of the SMILES, low to high.
Cc1occ2c1C(=O)c1c(O)ccc(O)c1C2 (2.5 µM)
inactive: PDPK1 = 0 | PIK4CA 0 | PIK4CB 0 | PLK1 = 0 | PRKAA1 = 0 | PRKCA 0 | PTK2 = 0 | PTK2B 0 | RAF1 = 0 | [1] 0 | RET 0 | [2] 0 | RIOK1 = 0 | RIPK1 = 0 | RIPK2 = 0 | ROR2 = 0 | RPS6KA1 = 0 | SPHK1 = 0 | SRC 0 | STK24 = 0

O=C(CC(c1ccccc1)C(C(=O)O)C(=O)O)c1ccc(C(F)(F)F)cc1 (stereo not given) (10 µM)
inactive: PDPK1 = 0 | PIK4CA 0 | PIK4CB 0 | PLK1 = 0 | PRKAA1 = 0 | PRKCA 0 | PTK2 = 0 | PTK2B 0 | RAF1 = 0 | [1] 0 | RET 0 | [2] 0 | RIOK1 = 0 | RIPK1 = 0 | RIPK2 = 0 | ROR2 = 0 | RPS6KA1 = 0 | SPHK1 = 0 | SRC 0 | STK24 = 0

COc1ccc(C2CC(c3ccc(Cl)cc3)=NN2c2nc(-c3ccncc3)cs2)cc1 (stereo not given) [mTOR inhibitor-8] (10 µM)
inactive: PDPK1 = 0 | PIK4CA 0 | PIK4CB 0 | PLK1 = 0 | PRKAA1 = 0 | PRKCA 0 | PTK2 = 0 | PTK2B 0 | RAF1 = 0 | [1] 0 | RET 0 | [2] 0 | RIOK1 = 0 | RIPK1 = 0 | RIPK2 = 0 | ROR2 = 0 | RPS6KA1 = 0 | SPHK1 = 0 | SRC 0 | STK24 = 0

(cont.)

COC(=O)/C=C/c1ccc(O)c(OC)c1 [Ferulic acid methyl ester] (10 µM)
inactive: PDPK1 = 0 | PIK4CA 0 | PIK4CB 0 | PLK1 = 0 | PRKAA1 = 0 | PRKCA 0 | PTK2 = 0 | PTK2B 0 | RAF1 = 0 | [1] 0 | RET 0 | [2] 0 | RIOK1 = 0 | RIPK1 = 0 | RIPK2 = 0 | ROR2 = 0 | RPS6KA1 = 0 | SPHK1 = 0 | SRC 0 | STK24 = 0

Cc1ccc(-n2c(-c3ccc(O)cc3O)n[nH]c2=O)cc1 (10 µM)
inactive: PDPK1 = 0 | PIK4CA 0 | PIK4CB 0 | PLK1 = 0 | PRKAA1 = 0 | PRKCA 0 | PTK2 = 0 | PTK2B 0 | RAF1 = 0 | RET 0 | [2] 0 | RIOK1 = 0 | RIPK1 = 0 | RIPK2 = 0 | ROR2 = 0 | RPS6KA1 = 0 | SPHK1 = 0 | SRC 0 | STK24 = 0
active: [1] 1

CNC(=O)Nc1cc(Oc2cncc(C)c2)c(-c2ccc(OCC(C)(C)O)nc2)cn1 (2.5 µM)
inactive: PDPK1 = 0 | PIK4CA 0 | PIK4CB 0 | PLK1 = 0 | PRKAA1 = 0 | PRKCA 0 | PTK2 = 0 | PTK2B 0 | RAF1 = 0 | [1] 0 | RET 0 | [2] 0 | RIOK1 = 0 | RIPK1 = 0 | RIPK2 = 0 | ROR2 = 0 | RPS6KA1 = 0 | SPHK1 = 0 | SRC 0 | STK24 = 0

CN(C)CCCNc1ccn2ncc(-c3ccc4c(c3)OCO4)c2n1 (10 µM)
inactive: PDPK1 = 0 | PIK4CA 0 | PIK4CB 0 | PLK1 = 0 | PRKAA1 = 0 | PRKCA 0 | PTK2 = 0 | PTK2B 0 | RAF1 = 0 | [1] 0 | RET 0 | [2] 0 | RIOK1 = 0 | RIPK1 = 0 | RIPK2 = 0 | ROR2 = 0 | RPS6KA1 = 0 | SPHK1 = 0 | SRC 0 | STK24 = 0

COc1ccc(F)cc1C(=O)NCc1ccc(-c2nn([C@@H](C)C(F)(F)F)c(N)c2C(N)=O)cc1 [Pirtobrutinib] (10 µM)
inactive: PDPK1 = 0 | PIK4CA 0 | PIK4CB 0 | PLK1 = 0 | PRKAA1 = 0 | PRKCA 0 | PTK2 = 0 | PTK2B 0 | RAF1 = 0 | [1] 0 | RET 0 | [2] 0 | RIOK1 = 0 | RIPK1 = 0 | RIPK2 = 0 | ROR2 = 0 | RPS6KA1 = 0 | SPHK1 = 0 | SRC 0 | STK24 = 0

Cc1ccc(CNC(=O)N2CCC[C@]3(CCN(Cc4ccc(Cl)c(Cl)c4)C3)C2)cc1 (10 µM)
inactive: PDPK1 = 0 | PIK4CA 0 | PIK4CB 0 | PLK1 = 0 | PRKAA1 = 0 | PRKCA 0 | PTK2 = 0 | PTK2B 0 | RAF1 = 0 | [1] 0 | RET 0 | [2] 0 | RIOK1 = 0 | RIPK1 = 0 | RIPK2 = 0 | ROR2 = 0 | RPS6KA1 = 0 | SPHK1 = 0 | SRC 0 | STK24 = 0

CCc1ccc(NC(=O)Nc2ccccc2)cc1 (10 µM)
inactive: PDPK1 = 0 | PIK4CA 0 | PIK4CB 0 | PLK1 = 0 | PRKAA1 = 0 | PRKCA 0 | PTK2 = 0 | PTK2B 0 | RAF1 = 0 | [1] 0 | RET 0 | [2] 0 | RIOK1 = 0 | RIPK1 = 0 | RIPK2 = 0 | ROR2 = 0 | RPS6KA1 = 0 | SPHK1 = 0 | SRC 0 | STK24 = 0

C=CC(=O)N1CCC[C@@H](n2c(=O)n(-c3ccc(Oc4ccccc4)cc3)c3c(N)nccc32)C1 [Tolebrutinib] (10 µM)
inactive: PDPK1 = 0 | PIK4CA 0 | PIK4CB 0 | PLK1 = 0 | PRKAA1 = 0 | PRKCA 0 | PTK2 = 0 | PTK2B 0 | RAF1 = 0 | [1] 0 | RET 0 | [2] 0 | RIOK1 = 0 | RIPK1 = 0 | RIPK2 = 0 | ROR2 = 0 | RPS6KA1 = 0 | SPHK1 = 0 | SRC 0 | STK24 = 0

From the supplement of paper PMC12823440, “Inhibitors supercharge kinase turnover through native proteolytic circuits” (Nature, 2025)
